# Assay results from article PMC7042691.
# Protein sequences, listed by entry. Tags and fused reporters are not part of them. Residues count along the entry.
# UniProt Q8I0U8, residues 20-1694: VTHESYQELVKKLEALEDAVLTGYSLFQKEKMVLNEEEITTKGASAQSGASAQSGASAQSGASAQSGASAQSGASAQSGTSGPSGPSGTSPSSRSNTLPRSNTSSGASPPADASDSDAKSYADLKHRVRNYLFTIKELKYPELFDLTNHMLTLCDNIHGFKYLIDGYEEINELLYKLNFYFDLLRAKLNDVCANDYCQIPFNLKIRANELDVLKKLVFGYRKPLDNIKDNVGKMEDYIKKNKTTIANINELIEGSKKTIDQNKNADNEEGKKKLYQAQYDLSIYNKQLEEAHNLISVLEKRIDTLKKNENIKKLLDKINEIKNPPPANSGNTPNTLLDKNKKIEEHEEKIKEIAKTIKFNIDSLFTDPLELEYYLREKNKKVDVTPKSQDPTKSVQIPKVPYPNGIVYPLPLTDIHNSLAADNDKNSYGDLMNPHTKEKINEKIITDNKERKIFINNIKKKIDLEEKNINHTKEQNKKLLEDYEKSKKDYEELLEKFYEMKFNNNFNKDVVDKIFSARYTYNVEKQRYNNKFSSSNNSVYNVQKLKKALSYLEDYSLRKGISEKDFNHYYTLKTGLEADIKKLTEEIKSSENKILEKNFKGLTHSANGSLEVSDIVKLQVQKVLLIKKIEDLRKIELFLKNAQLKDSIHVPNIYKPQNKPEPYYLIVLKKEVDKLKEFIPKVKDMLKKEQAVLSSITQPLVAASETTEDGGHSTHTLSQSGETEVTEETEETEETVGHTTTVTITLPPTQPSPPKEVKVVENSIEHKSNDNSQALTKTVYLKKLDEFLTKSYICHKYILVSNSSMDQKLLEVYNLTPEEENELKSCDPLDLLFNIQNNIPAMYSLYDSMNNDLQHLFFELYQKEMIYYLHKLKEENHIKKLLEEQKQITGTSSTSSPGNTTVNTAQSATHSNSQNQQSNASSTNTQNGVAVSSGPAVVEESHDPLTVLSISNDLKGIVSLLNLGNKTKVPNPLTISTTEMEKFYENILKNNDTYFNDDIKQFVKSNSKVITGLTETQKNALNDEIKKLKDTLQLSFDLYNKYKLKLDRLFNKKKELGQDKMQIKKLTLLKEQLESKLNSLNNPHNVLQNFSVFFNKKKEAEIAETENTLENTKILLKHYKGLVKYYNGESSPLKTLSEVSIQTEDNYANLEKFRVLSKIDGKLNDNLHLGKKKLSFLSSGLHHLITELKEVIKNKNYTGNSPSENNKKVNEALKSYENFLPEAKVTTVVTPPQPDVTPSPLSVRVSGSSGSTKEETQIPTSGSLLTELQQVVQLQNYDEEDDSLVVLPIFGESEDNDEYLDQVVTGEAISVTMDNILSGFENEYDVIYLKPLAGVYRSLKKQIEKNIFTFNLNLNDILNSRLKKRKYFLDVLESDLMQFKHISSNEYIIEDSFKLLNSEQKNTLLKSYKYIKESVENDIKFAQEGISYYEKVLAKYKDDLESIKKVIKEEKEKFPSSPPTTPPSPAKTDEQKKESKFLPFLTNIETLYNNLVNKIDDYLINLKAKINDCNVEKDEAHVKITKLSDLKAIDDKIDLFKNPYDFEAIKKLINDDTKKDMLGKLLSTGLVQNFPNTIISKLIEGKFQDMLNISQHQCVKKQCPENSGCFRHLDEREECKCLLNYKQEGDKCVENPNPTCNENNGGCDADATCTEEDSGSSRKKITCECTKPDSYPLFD
# UniProt Q7KQK6: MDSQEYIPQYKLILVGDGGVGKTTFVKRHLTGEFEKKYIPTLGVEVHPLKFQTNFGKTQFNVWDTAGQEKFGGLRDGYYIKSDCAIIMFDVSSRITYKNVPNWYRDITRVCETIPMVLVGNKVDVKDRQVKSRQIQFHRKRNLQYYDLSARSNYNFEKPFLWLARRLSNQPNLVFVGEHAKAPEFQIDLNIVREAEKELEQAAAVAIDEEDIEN
# UniProt Q8ILV2: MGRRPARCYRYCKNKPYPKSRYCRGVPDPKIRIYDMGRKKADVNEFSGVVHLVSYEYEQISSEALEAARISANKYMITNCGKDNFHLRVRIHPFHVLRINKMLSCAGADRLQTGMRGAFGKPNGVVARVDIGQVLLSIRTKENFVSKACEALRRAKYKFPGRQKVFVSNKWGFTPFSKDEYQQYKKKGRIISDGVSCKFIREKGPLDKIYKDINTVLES
# UniProt Q8IKK7: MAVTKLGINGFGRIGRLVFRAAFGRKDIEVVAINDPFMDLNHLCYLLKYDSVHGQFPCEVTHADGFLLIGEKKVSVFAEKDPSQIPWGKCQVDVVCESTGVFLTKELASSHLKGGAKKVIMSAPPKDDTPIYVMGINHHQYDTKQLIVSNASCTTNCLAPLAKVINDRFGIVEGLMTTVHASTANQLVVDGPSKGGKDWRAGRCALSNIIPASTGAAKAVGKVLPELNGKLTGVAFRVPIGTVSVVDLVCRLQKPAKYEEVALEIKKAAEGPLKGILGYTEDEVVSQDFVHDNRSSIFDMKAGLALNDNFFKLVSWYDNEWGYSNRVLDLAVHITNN
# UniProt Q8I4U5: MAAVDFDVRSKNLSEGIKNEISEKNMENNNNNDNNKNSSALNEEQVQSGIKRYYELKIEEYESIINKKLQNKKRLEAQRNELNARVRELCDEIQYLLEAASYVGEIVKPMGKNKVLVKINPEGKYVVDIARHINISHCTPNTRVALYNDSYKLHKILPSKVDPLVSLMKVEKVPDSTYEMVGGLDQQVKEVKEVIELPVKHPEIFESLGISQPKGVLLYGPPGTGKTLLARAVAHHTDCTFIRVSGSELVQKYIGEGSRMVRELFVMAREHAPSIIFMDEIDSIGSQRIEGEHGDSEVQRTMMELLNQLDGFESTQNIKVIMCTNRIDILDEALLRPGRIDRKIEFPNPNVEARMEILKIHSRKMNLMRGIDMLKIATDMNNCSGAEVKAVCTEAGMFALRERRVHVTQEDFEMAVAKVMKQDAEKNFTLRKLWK
# UniProt Q8IKW5: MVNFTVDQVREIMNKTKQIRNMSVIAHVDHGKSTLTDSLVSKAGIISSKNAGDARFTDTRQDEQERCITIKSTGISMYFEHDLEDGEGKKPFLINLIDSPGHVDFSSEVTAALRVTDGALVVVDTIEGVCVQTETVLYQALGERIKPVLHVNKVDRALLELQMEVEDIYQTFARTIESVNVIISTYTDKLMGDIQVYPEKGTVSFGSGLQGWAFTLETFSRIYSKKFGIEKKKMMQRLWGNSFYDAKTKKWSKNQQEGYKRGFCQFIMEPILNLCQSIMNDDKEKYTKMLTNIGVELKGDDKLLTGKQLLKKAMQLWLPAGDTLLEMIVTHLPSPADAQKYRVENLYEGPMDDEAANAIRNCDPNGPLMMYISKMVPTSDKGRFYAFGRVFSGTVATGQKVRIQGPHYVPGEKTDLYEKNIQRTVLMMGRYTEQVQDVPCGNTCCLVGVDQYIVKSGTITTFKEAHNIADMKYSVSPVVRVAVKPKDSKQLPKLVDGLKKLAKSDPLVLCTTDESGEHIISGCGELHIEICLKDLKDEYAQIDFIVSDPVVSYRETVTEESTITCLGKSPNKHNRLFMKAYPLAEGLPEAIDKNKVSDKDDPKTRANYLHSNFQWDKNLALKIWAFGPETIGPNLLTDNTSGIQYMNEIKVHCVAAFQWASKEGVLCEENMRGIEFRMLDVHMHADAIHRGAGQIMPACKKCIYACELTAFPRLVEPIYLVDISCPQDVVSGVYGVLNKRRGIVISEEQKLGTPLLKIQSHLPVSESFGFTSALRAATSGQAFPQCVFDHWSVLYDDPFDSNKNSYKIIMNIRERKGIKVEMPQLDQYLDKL
# Target: T1, GFP::PfK13 (Plasmodium falciparum Kelch 13 protein, N-terminally tagged with 2xFKBP-GFP-2xFKBP) (Plasmodium falciparum) (UniProt Q8IDQ2)
# T1 sequence: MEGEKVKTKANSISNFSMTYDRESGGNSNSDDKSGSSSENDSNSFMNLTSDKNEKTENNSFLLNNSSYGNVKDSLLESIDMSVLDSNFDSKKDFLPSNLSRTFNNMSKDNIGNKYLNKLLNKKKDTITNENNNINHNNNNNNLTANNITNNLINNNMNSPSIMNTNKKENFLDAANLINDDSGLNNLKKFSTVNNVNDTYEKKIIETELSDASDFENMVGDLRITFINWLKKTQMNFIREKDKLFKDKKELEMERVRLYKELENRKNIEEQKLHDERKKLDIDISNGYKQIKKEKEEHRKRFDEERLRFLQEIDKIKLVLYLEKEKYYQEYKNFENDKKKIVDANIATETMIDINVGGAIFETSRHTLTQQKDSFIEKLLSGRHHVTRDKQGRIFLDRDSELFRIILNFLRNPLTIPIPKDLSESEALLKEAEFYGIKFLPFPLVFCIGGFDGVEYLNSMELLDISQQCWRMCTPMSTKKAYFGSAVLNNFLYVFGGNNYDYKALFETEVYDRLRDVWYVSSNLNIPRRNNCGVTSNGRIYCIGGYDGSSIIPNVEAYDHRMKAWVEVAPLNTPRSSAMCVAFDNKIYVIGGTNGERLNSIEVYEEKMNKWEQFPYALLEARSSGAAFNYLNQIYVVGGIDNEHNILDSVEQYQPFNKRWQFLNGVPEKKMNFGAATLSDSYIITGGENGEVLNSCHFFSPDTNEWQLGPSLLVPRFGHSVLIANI
# Experiment: affinity purification with mass spectrometry; GFP-Trap beads incubated with lysate of asexual blood-stage GFP::PfK13 parasites (30 mM Tris pH 7.5, 150 mM NaCl, 0.5 mM EDTA, 0.5% NP-40) for 4 h or overnight at 4°C; 3D7 parasites as control; LC-MS/MS; proteins common to three biological replicates, FDR 1%
row,Substance,binding
1,Parasitophorous vacuolar protein 1 (from UniProt Q8II72),binds
2,Merozoite surface protein 1 (from UniProt Q8I0U8 20-1694),binds
3,40S ribosomal protein S11 (from UniProt A0A5K1K925 1-151),binds
4,40S ribosomal protein S15A (from UniProt O77395 1-130),binds
5,DNA/RNA-binding protein Alba 1 (from UniProt Q8IAX8),binds
6,DNA/RNA-binding protein Alba 3 (from UniProt Q8IJX8),binds
7,Plasmepsin II (from UniProt Q8I6V3),binds
8,GTP-binding nuclear protein (from UniProt Q7KQK6 1-214),binds
9,60S ribosomal protein L10 (from UniProt Q8ILV2 1-219),binds
10,Glyceraldehyde-3-phosphate dehydrogenase (from UniProt Q8IKK7 1-337),binds
11,26S protease regulatory subunit 8 (from UniProt Q8I4U5 1-435),binds
12,Elongation factor 1-alpha (from UniProt Q8I0P6 1-443),binds
13,Elongation factor 2 (from UniProt Q8IKW5 1-832),binds

# No constants are given. Whether binding was seen depends on the method and setting. Binding seen in cells or lysates may run through a third protein. These calls come from enrichment with a bait or labelling near it, and not all partners need be listed. Sequences can lack the tags named with a protein.
